The shares of active, inactive and inconclusive entries below differ from those in the screen. Potencies beside an inconclusive call are fits to weak or partial responses and may not hold up. The source made the active and inactive calls. Calls follow the shape of the dose curve; as a rule, active = well fitted inhibition curve with a large enough effect; inconclusive = small, poorly fitted or top-dose-only effect; inactive = no such curve, though single readings can be large or run the other way.
Assay: High Content Assay for Compounds that inhibit the Assembly of the Perinucleolar Compartment: Confirmation of PNC Inhibition
Conditions: PC3M PTB-GFP, PNC prevalence imaging, 16 h; series mostly up to 46.1 µM; activity, negative = PNC inhibition: at the top concentration
In short: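 Confirmation in concentration-response of primary-screen actives: after a 16 hour compound exposure, paraformaldehyde-fixed, Hoechst-counterstained cells were imaged by automated microscopy and the fraction of cells carrying PNCs was quantified, with camptothecin as reference inhibitor.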
With `CCOC(=O)CSc1nc2c(sc3ccc([N+](=O)[O-])cc32)c(=O)n1Cc1ccco1` the “activity, negative = PNC inhibition” value was inactive: -11.7%. In the case of `Cc1ccc(NC(=S)NCCc2ccc(S(N)(=O)=O)cc2)cc1C`, the “activity, negative = PNC inhibition” value is reported as inactive: 32.5%. With `CNC1=C(N(C(C)=O)c2ccc(Br)cc2)C(=O)c2ccccc2C1=O` the Potency was inconclusive: 2.51 µM [inhibitor, full curve, poor fit]. With `CC1(c2cccc([N+](=O)[O-])c2)CC(C)(C)N(C(=O)c2ccccc2)c2ccccc21` (stereo unspecified) the Potency was inconclusive: 31.6 µM [inhibitor, partial curve, poor fit]. For `CSc1nc(-c2ccc(C)cc2)nc(C(Cl)Cl)n1`, the Potency was active: 12.6 µM. For `CCCNC1=C(N(C(C)=O)c2cccc(F)c2)C(=O)c2ccccc2C1=O`, the Potency was inconclusive: 7.94 µM [inhibitor, full curve, poor fit]. In the case of `CN(C)C(=O)COC(=O)c1ccccc1Nc1ccc(SC(F)F)cc1`, the Potency is reported as active: 15.8 µM. For `CNC(=S)N/N=C/c1cn(CCOc2ccccc2OC)c2ccccc12`, the Potency was inconclusive: 12.6 µM [inhibitor, partial curve, poor fit]. With `CCOc1ccc(CN(C)CC(=O)Nc2cc(OC)c([N+](=O)[O-])cc2C)cc1` the “activity, negative = PNC inhibition” value was inactive: -20.1%. With `COc1ccc(-c2cc(C#N)nc(N3CCN(C)CC3)n2)cc1` the Potency was inconclusive: 35.5 µM [inhibitor, single point]. In the case of `Cc1cccc(C)c1Nc1c(-c2ccc(N3CCOCC3)cc2)nc2ncccn12`, the “activity, negative = PNC inhibition” value is reported as inactive: -3.07%. For `O=C1C(=Cc2cccs2)C(=O)c2ccccc21`, the “activity, negative = PNC inhibition” value was inactive: 2.46%. For `CC(=O)c1ccc(-n2c(SCC(=O)c3c[nH]c4ccccc34)nc3ccccc3c2=O)cc1`, the “activity, negative = PNC inhibition” value was inactive: 28%. For `CCc1ccc(S(=O)(=O)/N=C2/C=C(Sc3ncn[nH]3)C(=O)c3ccccc32)cc1`, the Potency was active: 28.2 µM. For `COCCn1c(SC(C)C(=O)Nc2ncc(Cl)cc2Cl)nc2ccccc21` (stereo unspecified), the Potency was active: 12.6 µM. For `COc1ccc(CN2CCC(C(=O)NCCc3ccc(OC)c(OC)c3)CC2)c(OC)c1`, the Potency was inconclusive: 35.5 µM [inhibitor, single point]. With `Cc1cc(C(=O)Cn2nnc3ccccc3c2=O)c(C)n1-c1ccccc1F` the Potency was active: 4.47 µM. For `CCCCN(C(=O)Nc1ccc(Cl)cc1)C1CCN(C(C)=O)CC1`, the “activity, negative = PNC inhibition” value was inactive: -11%. With `CC(/C=C/c1ccccc1)=N/NC(=O)c1cc([N+](=O)[O-])cc([N+](=O)[O-])c1` the Potency was inconclusive: 28.2 µM [inhibitor, partial curve, poor fit]. With `COC(=O)C1=C(C)N(c2ccc(Br)cc2)C(=O)/C1=C\c1ccco1` the “activity, negative = PNC inhibition” value was inactive: -26.2%. In the case of `COc1cc(NC(=S)NC(=O)c2ccc(C(C)(C)C)cc2)ccc1NC(=O)c1cccs1`, the Potency is reported as active: 3.98 µM.
